Structures can show the parent of a compound that is named as a salt. The list shows a part of the results. Repeats in this data set agree poorly, so a single value says little.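 Wild-type human LRH-1, a heavily sumoylated nuclear receptor, is tetracycline-inducible in stable JEG3 cells. RT-qPCR measured SUMO-sensitive APOC3 and MUC1 transcripts, which rise with SUMO-less LRH-1 or UBC9 knockdown, versus TBP and DMSO controls. Robust Z-scores beyond ±2 flagged primary hits, followed by toxicity and TBP filtering.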
test system: JEG3 expressing hLRH-1; test: MUC1 transcript change (ddCt vs TBP and DMSO), Z-score over library; higher = higher MUC1 expression; details: 10 µM; time (hr): 24

Row | Compound | MUC1 transcript change (Z-score)
1 | CC[C@]1(O)C[C@H]2CN(CCc3c([nH]c4ccccc34)[C@@](C(=O)OC)(c3cc4c(cc3OC)N(C)[C@H]3[C@@](O)(C(=O)OC)[C@H](OC(C)=O)[C@]5(CC)C=CCN6CC[C@]43[C@@H]65)C2)C1 [vinblastine sulfate] | 0.0864
2 | CC(C)(Oc1ccc(C2CC2(Cl)Cl)cc1)C(=O)O (stereo unspecified) [ciprofibrate] | 0.604
3 | Nc1ccc(S(=O)(=O)Nc2nccs2)cc1 [sulfathiazole] | 0.375
4 | NS(=O)(=O)c1cc2c(cc1Cl)NCNS2(=O)=O [Hydrochlorothiazide] | 0.78
5 | O=C1OC(c2ccc(O)cc2)(c2ccc(O)cc2)c2ccccc21 [phenolphthalein] | 0.183
6 | Cc1ccccc1C(OCCN(C)C)c1ccccc1 (stereo unspecified) [orphenadrine citrate] | 0.39
7 | Cc1cc(C2CCCCC2)n(O)c(=O)c1 [ciclopirox olamine] | 7.13
8 | NC(=O)c1cnccn1 [pyrazinamide] | -1.26
9 | OCCOCCN1CCN(C(c2ccccc2)c2ccc(Cl)cc2)CC1 (stereo unspecified) [hydroxyzine pamoate] | 0.00491
10 | O=C1c2cccc(O)c2C(=O)c2c(O)cccc21 [dantron] | 0.252
11 | Cc1cc2nc3c(=O)[nH]c(=O)nc-3n(C[C@@H](O)[C@@H](O)[C@@H](O)COP(=O)(O)O)c2cc1C [riboflavin 5-phosphate sodium] | 0.573
12 | CN1CCCC(n2nc(Cc3ccc(Cl)cc3)c3ccccc3c2=O)CC1 (stereo unspecified) [azelastine hydrochloride] | -0.249
13 | Nc1ccc(S(N)(=O)=O)cc1 [sulfanilamide] | 0.205
14 | C[C@]12CCC(=O)C=C1[C@@H]1C[C@@H]1[C@H]1[C@@H]3[C@@H]4C[C@@H]4[C@@]4(CCC(=O)O4)[C@@]3(C)CC[C@@H]12 [drospirenone] | 0.431
15 | C[N+](C)(C)CC(O)CC(=O)O (stereo unspecified) [carnitine hydrochloride] | 0.764
16 | CCCOc1ccc(C(=O)OCCN(CC)CC)cc1N [proparacaine hydrochloride] | -0.884
17 | O=C(CCCN1CC=C(n2c(O)nc3ccccc32)CC1)c1ccc(F)cc1 [droperidol] | 0.161
18 | Clc1ccc(CSC(Cn2ccnc2)c2ccc(Cl)cc2Cl)cc1 (stereo unspecified) [sulconazole nitrate] | -0.0721
19 | CC(Oc1ccccc1)C(=O)N[C@@H]1C(=O)N2[C@@H]1SC(C)(C)[C@@H]2C(=O)O (stereo partly specified) [phenethicillin potassium] | -0.269
20 | Cc1ccc(S(=O)(=O)NCl)cc1 [chloramine-t] | -0.318
21 | CC1(C)S[C@@H]2[C@H](NC(=O)[C@H](N)c3ccccc3)C(=O)N2[C@H]1C(=O)O [ampicillin sodium] | 1.2
22 | c1ccc(CC2=NCCN2)cc1 [tolazoline hydrochloride] | 0.491
23 | CC(=O)NCCCCCC(=O)O [acexamic acid] | -0.418
24 | COc1cc([C@@H]2c3cc4c(cc3C(O[C@@H]3O[C@@H]5CO[C@@H](c6cccs6)OC5[C@H](O)[C@H]3O)C3COC(=O)[C@@H]32)OCO4)cc(OC)c1O (stereo partly specified) [teniposide] | 0.854
25 | O=C(O)c1cccnc1Nc1cccc(C(F)(F)F)c1 [niflumic acid] | 0.899
26 | CCNC(=O)/C=C/c1cccc(Br)c1 [cinromide] | 0.549

Row | Compound | MUC1 transcript change (Z-score)
27 | CC1CC(OC(=O)C(O)c2ccccc2)CC(C)(C)C1 (stereo unspecified) [cyclandelate] | -0.7
28 | Nc1nc(O)c2nc(CNc3ccc(C(=O)N[C@@H](CCC(=O)O)C(=O)O)cc3)cnc2n1 [folic acid] | -0.162
29 | CCN(CC)CC(=O)Nc1c(C)cccc1C [Lidocaine hydrochloride] | -1.62
30 | CC(=O)OCC(=O)[C@@]12OC(C)(C)O[C@@H]1C[C@H]1[C@@H]3C[C@H](F)C4=CC(=O)C=C[C@]4(C)[C@@]3(F)[C@@H](O)C[C@@]12C [fluocinonide] | -0.183
31 | Clc1ccc2c(c1)C(N1CCNCC1)=Nc1ccccc1O2 [Amoxapine] | -1.01
32 | CC(C)NCC(O)c1ccc(NS(C)(=O)=O)cc1 (stereo unspecified) [sotalol hydrochloride] | -0.12
33 | COc1ccc(-c2cc(C(F)F)nn2-c2ccc(S(N)(=O)=O)cc2)cc1F [deracoxib] | -1.46
34 | O=C1NS(=O)(=O)c2ccccc21 [saccharin] | 0.0744
35 | Nc1ccc(S(=O)(=O)c2ccc(N)cc2)cc1 [dapsone] | -0.464
36 | CN(C)CCC(c1ccc(Cl)cc1)c1ccccn1 (stereo unspecified) [chlorpheniramine maleate] | -0.367
37 | CN1CCN(C(c2ccccc2)c2ccc(Cl)cc2)CC1 (stereo unspecified) [chlorcyclizine hydrochloride] | -0.445
38 | O=S(=O)(OC[C@H]1O[C@@H](O[C@]2(COS(=O)(=O)[O][Al]([OH])[OH])O[C@H](OS(=O)(=O)[O][Al]([OH])[OH])[C@@H](OS(=O)(=O)[O][Al]([OH])[OH])[C@@H]2OS(=O)(=O)[O][Al]([OH])[OH])[C@H](OS(=O)(=O)[O][Al]([OH])[OH])[C@@H](OS(=O)(=O)[O][Al]([OH])[OH])[C@@H]1OS(=O)(=O)[O][Al]([OH])[OH])[O][Al]([OH])[OH] [sucralfate] | 1.12
39 | CN(C)CCN(Cc1cccs1)c1ccccn1 [methapyrilene hydrochloride] | 0.708
40 | CC(=O)NS(=O)(=O)c1ccc(N)cc1 [sulfacetamide] | 0.0294
41 | CCC[C@H](N[C@@H](C)C(=O)N1[C@H](C(=O)O)C[C@@H]2CCCC[C@@H]21)C(=O)OCC [perindopril erbumine] | -1.33
42 | Cc1nccnc1N1CCCCC1 [modaline sulfate] | 0.685
43 | CCC1(C)OC(=O)N(C)C1=O (stereo unspecified) [paramethadione] | 0.53
44 | COC(=O)Nc1nc2cc(S(=O)c3ccccc3)ccc2[nH]1 (stereo unspecified) [oxfendazole] | 0.604
45 | NC(=O)CCCCC1CCSS1 (stereo unspecified) [lipoamide] | -0.084
46 | CN1CCOC(c2ccccc2)c2ccccc2C1 (stereo unspecified) [nefopam] | -0.084
47 | O=C(O)c1cccnc1 [niacin] | -0.167
48 | CCC(C)(C)C(=O)O[C@H]1C[C@@H](C)C=C2C=C[C@H](C)[C@H](CC[C@@H]3C[C@@H](O)CC(=O)O3)[C@H]21 [simvastatin] | 0.751
49 | Nc1ncnc2c1ncn2[C@@H]1O[C@H](CO)[C@@H](O)[C@H]1O [adenosine] | 0.276
50 | CC#CCn1c(N2CCC[C@@H](N)C2)nc2c1c(=O)n(Cc1nc(C)c3ccccc3n1)c(=O)n2C [linagliptin] | -0.437
51 | c1ccc2c(CC3=NCCN3)cccc2c1 [naphazoline hydrochloride] | -0.163
52 | CN[C@@H]1[C@H](O)[C@H](NC)[C@H]2O[C@@]3(O)C(=O)C[C@@H](C)O[C@H]3O[C@@H]2[C@H]1O [spectinomycin hydrochloride] | 0.689

Records 36 through 49, quoted:
Row | Compound | MUC1 transcript change (Z-score)
36 | CN(C)CCC(c1ccc(Cl)cc1)c1ccccn1 (stereo unspecified) [chlorpheniramine maleate] | -0.367
37 | CN1CCN(C(c2ccccc2)c2ccc(Cl)cc2)CC1 (stereo unspecified) [chlorcyclizine hydrochloride] | -0.445
38 | O=S(=O)(OC[C@H]1O[C@@H](O[C@]2(COS(=O)(=O)[O][Al]([OH])[OH])O[C@H](OS(=O)(=O)[O][Al]([OH])[OH])[C@@H](OS(=O)(=O)[O][Al]([OH])[OH])[C@@H]2OS(=O)(=O)[O][Al]([OH])[OH])[C@H](OS(=O)(=O)[O][Al]([OH])[OH])[C@@H](OS(=O)(=O)[O][Al]([OH])[OH])[C@@H]1OS(=O)(=O)[O][Al]([OH])[OH])[O][Al]([OH])[OH] [sucralfate] | 1.12
39 | CN(C)CCN(Cc1cccs1)c1ccccn1 [methapyrilene hydrochloride] | 0.708
40 | CC(=O)NS(=O)(=O)c1ccc(N)cc1 [sulfacetamide] | 0.0294
41 | CCC[C@H](N[C@@H](C)C(=O)N1[C@H](C(=O)O)C[C@@H]2CCCC[C@@H]21)C(=O)OCC [perindopril erbumine] | -1.33
42 | Cc1nccnc1N1CCCCC1 [modaline sulfate] | 0.685
43 | CCC1(C)OC(=O)N(C)C1=O (stereo unspecified) [paramethadione] | 0.53
44 | COC(=O)Nc1nc2cc(S(=O)c3ccccc3)ccc2[nH]1 (stereo unspecified) [oxfendazole] | 0.604
45 | NC(=O)CCCCC1CCSS1 (stereo unspecified) [lipoamide] | -0.084
46 | CN1CCOC(c2ccccc2)c2ccccc2C1 (stereo unspecified) [nefopam] | -0.084
47 | O=C(O)c1cccnc1 [niacin] | -0.167
48 | CCC(C)(C)C(=O)O[C@H]1C[C@@H](C)C=C2C=C[C@H](C)[C@H](CC[C@@H]3C[C@@H](O)CC(=O)O3)[C@H]21 [simvastatin] | 0.751
49 | Nc1ncnc2c1ncn2[C@@H]1O[C@H](CO)[C@@H](O)[C@H]1O [adenosine] | 0.276

Continued:

Row | Compound | MUC1 transcript change (Z-score)
53 | CC(=O)NCCCS(=O)(=O)[O-]->[Ca+2]<-[O-]S(=O)(=O)CCCNC(C)=O [acamprosate calcium] | 0.277
54 | COC(=O)/C=C/C(=O)OC [dimethyl fumarate] | -0.0709
55 | OC(CNCC(O)C1CCc2cc(F)ccc2O1)C1CCc2cc(F)ccc2O1 (stereo unspecified) [nebivolol hydrochloride] | 0.5
56 | O=C(NCc1ccccc1)OCCO [buramate] | 0.672
57 | N=C(N)/N=C(\N)NCCc1ccccc1 [phenformin hydrochloride] | -0.622
58 | CN(C)CCCN1c2ccccc2Sc2ccc(C(F)(F)F)cc21 [triflupromazine hydrochloride] | -0.426
59 | S=P(N1CC1)(N1CC1)N1CC1 [thiotepa] | -0.0352
60 | N[C@@H](Cc1cc(I)c(Oc2ccc(O)c(I)c2)c(I)c1)C(=O)O [liothyronine sodium] | 0.291
61 | CCN(CC)C(=O)C1(c2ccccc2)CC1CN (stereo unspecified) [milnacipran hydrochloride] | -0.618
62 | Cc1cc(C(C)(C)CC(C)(C)C)cc(Cc2cc(C(C)(C)CC(C)(C)C)cc(Cc3cc(C(C)(C)CC(C)(C)C)ccc3OCCO)c2OCCO)c1OCCO [tyloxapol] | -0.283
63 | CC(=O)Oc1ccc(C(c2ccc(OC(C)=O)cc2)c2ccccn2)cc1 [bisacodyl] | 0.853
64 | CCC(C)C(N)C1=NC(C(=O)NC(CC(C)C)C(=O)NC(CCC(=O)O)C(=O)NC(C(=O)NCCCCC2NC(=O)C(CC(N)=O)NC(=O)C(CC(=O)O)NC(=O)C(Cc3c[nH]cn3)NC(=O)C(Cc3ccccc3)NC(=O)C(C(C)CC)NC(=O)C(CCCN)NC2=O)C(C)CC)CS1 (stereo unspecified) [bacitracin] | 0.0679
65 | CC(C)NCC(O)COc1ccc(CC(N)=O)cc1 (racemic) [(±)-Atenolol] | 0.0687
66 | CCN(CC)CCNC(C(=O)OCCC(C)C)c1ccccc1 (stereo unspecified) [camylofine dihydrochloride] | -0.628
67 | C[N+]1(C)C2CC[C@H]1C[C@@H](OC(=O)C(O)c1ccccc1)C2 (stereo partly specified) [homatropine methylbromide] | -1
68 | O=C(/C=C/C=C/c1ccc2c(c1)OCO2)N1CCCCC1 [piperine] | 0.459
69 | OC(CCN1CCCC1)(c1ccccc1)C1CCCCC1 (stereo unspecified) [procyclidine hydrochloride] | -0.582
70 | Nc1nc(O)c2c(CCc3ccc(C(=O)N[C@@H](CCC(=O)O)C(=O)O)cc3)c[nH]c2n1 [pemetrexed] | 0.923
71 | CC1(C)NC(=O)N(c2ccc([N+](=O)[O-])c(C(F)(F)F)c2)C1=O [nilutamide] | -0.173
72 | C[N+](C)(C)CC(=O)O [betaine hydrochloride] | 0.7
73 | O=C1C(CCS(=O)c2ccccc2)C(=O)N(c2ccccc2)N1c1ccccc1 (stereo unspecified) [sulfinpyrazone] | 1.15
74 | CS(=O)(=O)c1ccc(C2=C(c3ccccc3)C(=O)OC2)cc1 [rofecoxib] | 0.781
75 | C[C@]12CC[C@@H]3c4ccc(OC(=O)c5ccccc5)cc4CC[C@H]3[C@@H]1CC[C@@H]2O [estradiol benzoate] | -0.498
76 | CC(=O)OC(C)C[N+](C)(C)C (stereo unspecified) [methacholine chloride] | 0.586

Source: the supplement of paper PMC4749390
